This data set has as its system COS cells. Briefly: Membrane targeting of NOS constructs in COS cells. Type of data set: cell-based. The note with it: preliminary experiments.

Here are results for 2 substances from US7888089B2, “eNOS mutations useful for gene therapy and therapeutic screening” (Yale University, priority 1999, dated 2011).

In the case of “myr-nNOS: nNOS with new amino terminus containing the eNOS N-myristoylation consensus site (MGNLKSVG)”, the “total protein in the membrane fraction of cells” value is reported as “approximately 60%”.

Take “nNOS: rat neuronal NOS [reference compound]”: the “total protein in the membrane fraction of cells” value is recorded as 5-10%.
